Results on 77 compounds are retold here after PMC12040169 (PLOS Biology, 2025).

The list shows a part of the results.

The subject of this assay is T1, CTL2-GFP (C. trachomatis L2/434/Bu, GFP-expressing).
T1 construct: L2/434/Bu, GFP-expressing
Also on record: species or system HeLa; Intracellular C. trachomatis growth in HeLa cells, bulk GFP fluorescence relative to DMSO. Particulars: bulk GFP, single well; 28.5 h, 10 µM; inhibitor.
Take `O=C(NNC(=O)C1CCN(S(=O)(=O)c2ccc(Br)cc2)CC1)NC12CC3CC(CC(C3)C1)C2` [CBK266907]: the “% of control remaining” value is reported as 168.475%.
With `O=C(Nc1c(F)cccc1F)N(Cc1ccc2ccccc2c1)CC1CCNCC1` [CBK119480], the “% of control remaining” value came to 126.018%.
As for `COc1ccc([C@@]23CC[C@@H](Nc4nc(-c5ccc(Br)cc5)cs4)C[C@@H]2N(C)CC3)cc1OC` [CBK036543], the “% of control remaining” value is listed as 36.9293%.
For `CC(CN1CCCC1)NC(=O)c1ccc2c(c1)ncn2C` (centres unmarked) [CBK281715], the “% of control remaining” value turned out to be 98.8485%.
As for `C[C@@H]1[C@H](c2ccccc2)OC(=O)N1C1CCN(S(=O)(=O)c2cccs2)CC1` [CBK043302], the figure is 101.135%; as for `CNC(=O)c1cc(S(=O)(=O)N(C2CC2)C2CCc3ccccc32)cn1C` (centres unmarked) [CBK305988], 104.073%; as for `CC(C)[C@@H](CO)Nc1cncc(-c2cccc(CO)c2)n1` [CBK065427], 174.281%.
For the compound `O=C(O)C1CSC(c2ccc([N+](=O)[O-])cc2)N1` (centres unmarked) [CBK260909], the “% of control remaining” value is reported as 101.997%.
As for `c1cnc(OC2CCN(CC3CCCCC3)CC2)c(OCCN2CCOCC2)n1` [CBK082941T], the figure is 96.7369%.
Then `O=C1CNC(=O)C2(C/C=C/C[C@H]3COCC[C@@H]3N1)CCN(C(=O)CCc1cccnc1)CC2` [CBK292051], with 102.695%; and `COc1ccc(-c2cc(C(=O)Nc3nccs3)cnc2-c2ccc(Cl)cc2)cc1` [CBK037553], with 205.175%.
Then `Oc1c(C(Nc2cccnc2)c2cccs2)ccc2cccnc12` (centres unmarked) [CBK268637], with 49.2071%; and `CC(=O)N1CCC(C(=O)NC(=O)Nc2ccccc2F)CC1` [CBK034848], with 108.262%; and `CCN(CC)CCN1CCN(c2cc(-c3ccc4c(c3)OCO4)ncn2)CC1` [CBK037694], with 150.588%.
As to `Cc1cn(CC(=O)N2CCCC3(CCN(C(=O)c4ccoc4)C3)C2)c(=O)[nH]c1=O` (centres unmarked) [CBK131634], the “% of control remaining” value stood at 103.562%.
As for `Cc1ccc(CCP(=O)(O)CN2CCOCC2)cn1` [CBK022176], the figure is 115.719%; as for `Cn1ccnc1C1(O)CCN(C(=O)c2cc(F)cc(F)c2)CC1` [CBK283544], 107.334%; as for `Cc1ccc(-c2noc([C@@H]3Cc4[nH]cnc4CN3C(=O)CCC(=O)O)n2)cc1` [CBK288958], 131.7%.
Then `Cc1nn(C)c(C)c1CCC(=O)NCC1CCN(c2ccccc2F)C1` (centres unmarked) [CBK304357], with 126.478%; and `O=C(O)CCc1ccc(S(=O)(=O)Nc2ccccc2Cc2ccccc2)cc1` [CBK295616], with 127.892%; and `COc1ccc(S(=O)(=O)N(C)CC(=O)N2CCOCC2)cc1C` [CBK267898], with 113.817%.
As for `Cc1cc(C)c2nc(NC(=O)c3ccc(=O)n(CC(=O)N(C)c4ccccc4)c3)sc2c1` [CBK286025], the figure is 99.2611%.
For `CC(C)C(=O)N1CCC(n2c(=O)oc3ccc(Cl)cc32)CC1` [CBK284339], the “% of control remaining” value is reported as 100.955%.
Take `Cc1cc2cc(C(=O)NCC3(N(C)C)CCN(C)CC3)ccc2o1` [CBK282623]: the “% of control remaining” value is listed as 112.036%.
In the case of `CC(=O)Nc1ccc(C(=O)NCc2ccc(OCC(F)(F)F)cc2)cc1` [CBK305732], the “% of control remaining” value is 141.961%.
On to `CC(C)(C)CC(=O)N1CCCC1c1n[nH]cc1-c1ccncc1` (centres unmarked) [CBK283430], for which the “% of control remaining” value was determined as 120.105%.
In the case of `CCCCCN1CCn2nc(CNc3cnccn3)cc2C1` [CBK306713], the “% of control remaining” value came out at 147.234%.
Then `Cc1nc2cc(OCc3nc(C(=O)N(CCO)CCO)co3)ccc2s1` [CBK307684], with 130.282%.
Then `CC(=O)Nc1ccccc1-c1nc2ccccc2nc1OCC(=O)c1ccc(Cl)cc1` [CBK266269], with 157.392%.
Then `O=C(c1ccno1)n1nccc1-c1cc(-c2ccccc2)no1` [CBK022074], with 122.063%.
With `COc1ccc(CN2CCN(C(=O)c3ccccc3F)CC2)c(OC)c1` [CBK033601], the “% of control remaining” value was 126.364%.
Consider `O=C(CN1CCN(C(c2ccccc2)c2ccccc2)CC1)Nc1c2c(nc3ccccc13)CCC2` [CBK278299G], for which the “% of control remaining” value worked out at 98.374%.
As for `CSCCC(NC(=O)C1CCC(C)CC1)C(=O)O` (centres unmarked) [CBK286552], the figure is 113.69%.
For the compound `N#Cc1c(F)cccc1NCc1cccnc1` [CBK057053], the “% of control remaining” value came to 106.205%.
As for `CN(C)Cc1cc(-c2ccc(CNC(=O)C3CC3)cc2)nn1C` [CBK283470], the figure is 129.036%; as for `COc1ccc([C@@]23CC[C@H](NC(=O)Nc4ccc(F)c(F)c4)C[C@@H]2N(Cc2ccccc2)CC3)cc1OC` [CBK041333T], 81.8518%.
Then `O=C(NCCC1SC(NC2CC3C=CC2C3)=NC1=O)c1ccccc1Cl` (centres unmarked) [CBK200062], with 110.412%; and `C=CCC1c2cccc(C(=O)O)c2C(=O)N1c1ccc(F)cc1` (centres unmarked) [CBK113158], with 105.935%.
As for `COc1ccc(NC(=O)Nc2ccccc2C(N)=O)cc1OC` [CBK267061], the “% of control remaining” value is recorded as 151.657%.
As for `NC(=O)NC(Cc1c[nH]c2ccccc12)C(=O)O` (centres unmarked) [CBK218895], the figure is 130.924%; as for `CCOC(=O)N1CCN(C(C(=O)O)c2c[nH]c3ccc(C)cc23)CC1` (centres unmarked) [CBK286632], 87.9818%; as for `COc1ccc(CNC(=O)C2CCCN(c3nc4c(-c5ccc(C)cc5)csc4c(=O)[nH]3)C2)cc1` (centres unmarked) [CBK215530], 109.006%.
As for `c1cnn(CC2CCCN2c2ncnc3sccc23)c1` (centres unmarked) [CBK304968], the figure is 113.064%.
Consider `O=c1c2ccccc2c(-c2ccc(Cl)cc2)nn1-c1cc(N2CCNCC2)ccc1[N+](=O)[O-]` [CBK265763], for which the “% of control remaining” value was 106.704%.
As for `Cc1cc(NCC2(CO)CCOCC2)nc(N2CCCC2)n1` [CBK307005], the “% of control remaining” value is 141.063%.
Take `CCCCNc1nnc(-c2cc(C)nn2C)s1` [CBK288019]: the “% of control remaining” value was found to be 102.855%.
With `COc1cc(-c2nc(-c3ccc(Cl)cc3)c(-c3ccccc3)[nH]2)c([N+](=O)[O-])cc1OC` [CBK264503], the “% of control remaining” value came out at 108.169%.
As for `CCc1nc2ccccc2c(NC(=O)CN2CCCCCC2)c1C` [CBK261580G], the figure is 110.556%; as for `C[C@H](C(=O)N1CCCC1)C1CC[C@@]2(C)Cc3sc(NC(=O)C4CC4)nc3[C@@H](C)[C@@H]2[C@H]1O` (some centres unmarked) [CBK289432], 116.346%.
As for `OC(CNc1nccnc1-c1ccsc1)COc1ccccc1` (centres unmarked) [CBK037057], the figure is 119.595%.
As for `CN(c1ccc(C(O)(C(F)(F)F)C(F)(F)F)cc1)S(=O)(=O)c1cccs1` [CBK067061], the figure is 104.135%; as for `CC(=O)NC[C@H]1CN(c2ccc(C#N)c(C)c2)C(=O)O1` [CBK010393], 39.5786%; as for `O=C(NCCc1ccc(F)cc1)C1CN(C(=O)c2ccc3nsnc3c2)C1` [CBK285690], 134.061%.
As for `Cc1ccc(CNC(=O)C2CCN(S(=O)(=O)N3CCOCC3)CC2)cc1` [CBK294467], the “% of control remaining” value was found to be 106.989%.
Consider `O=C(CCC(=O)c1ccccc1)Nc1cc2ccccc2c(N2CCNCC2)n1` [CBK028418T], for which the “% of control remaining” value amounted to 102.864%.
As to `Cn1c(=O)n(C)c2cc(CNc3nn[nH]n3)ccc21` [CBK270243], the “% of control remaining” value stood at 178.985%.
As for `O=C(Nc1cccc2nsnc12)c1ccc(-c2ccc(Br)cc2)o1` [CBK263752], the figure is 86.1373%; as for `C=CCOc1ccc(-c2nc3s/c(=C4\C(=O)N(Cc5ccccc5F)c5ccccc54)c(=O)n3n2)cc1` [CBK266615], 121.466%.
As for `CCOc1ccc2c(c1)cc(C(=O)N(C)CC(F)(F)F)n2C` [CBK281509], the figure is 133.465%; as for `N=C(N)NC(=N)Nc1ccc2c(c1)OCCO2` [CBK021572C], 110.418%.
As for `Nc1ncc(-c2ccccc2O)nc1-c1ccc(O)cc1` [CBK115548], the figure is 205.887%; as for `CN(C)c1cccc(OCCn2ccnc(N3CCNCC3)c2=O)c1` [CBK013866F], 114.322%.
On to `Cc1cc(C)c2c(c1)cc(C)c1nn(CC(=O)N3CCCC3)c(=O)n12` [CBK283876], for which the “% of control remaining” value amounted to 132.373%.
As to `COc1ccccc1OCC(=O)N1CCN(C(=O)c2ccco2)CC1` [CBK144466], the “% of control remaining” value is given as 127.596%.
As for `CN1CCN(Cc2c(C(C)(C)C)[nH]c3ncccc23)CC1` [CBK285334], the figure is 113.473%; as for `O=C(O)c1ccc(CN2C(=O)c3ccc(C(=O)c4ccc(C(=O)O)cc4)cc3C2=O)cc1` [CBK262831], 125.969%.
As for `O=C(CCCn1ccnc1)NC(Cc1ccsc1)c1cccnc1` (centres unmarked) [CBK285158], the figure is 121.123%.
On to `COc1ccccc1-c1cc2nc(C)cc(Nc3ccccc3)n2n1` [CBK287806], for which the “% of control remaining” value turned out to be 108.513%.
Turning to `CCOC(=O)c1nnsc1Sc1ccc(C)cc1` [CBK018867], the “% of control remaining” value is listed as 137.228%.
As for `O=C(NCCc1ccccn1)N1CCCN(Cc2cccs2)CC1` [CBK305283], the figure is 126.978%; as for `CCc1cc(NCCc2ccc(=O)[nH]c2)nc(-c2ccc(Br)cc2)n1` [CBK144610C], 99.9626%.
Then `CC(C)Nc1nc(C#N)nc(NC(C)C)n1` [CBK027421], with 118.225%; and `COCc1nnc(Sc2cc(N3CCCC3)ncn2)s1` [CBK093746], with 103.945%; and `Cc1cc2cc(NC(=O)CCc3c(C)n[nH]c3C)ccc2o1` [CBK283077], with 127.349%.
Then `COc1cc(CNC(=O)N(CCc2ccccc2)Cc2ccccc2)cc(OC)c1OC` [CBK155329], with 58.6352%; and `Cc1cc(NC(=O)COc2ccc(Cl)cc2)nc2c1c(=O)oc1ccccc12` [CBK291230], with 160.837%.
As to `COc1cc(C(=O)Nc2ccccc2C(=O)N2CCN(C)CC2)cc(OC)c1OC` [CBK269803], the “% of control remaining” value is on record as 112.816%.
